Experimental data reported in article PMC11909135, “Raptin, a sleep-induced hypothalamic hormone, suppresses appetite and obesity” (Cell Research, 2025).
Results are given in words; binding and its absence hold for the method and conditions named. Binding seen in cells or lysates may run through a third protein. Here binding means that the protein was enriched with, or labelled near, the bait; the list need not be complete. Tags and fused reporters may be left off the sequences shown.

By UniProt entry, the sequences of proteins in these tests, tags left out. Residues count along the entry.
UniProt Q9QYS2, residues 23-879: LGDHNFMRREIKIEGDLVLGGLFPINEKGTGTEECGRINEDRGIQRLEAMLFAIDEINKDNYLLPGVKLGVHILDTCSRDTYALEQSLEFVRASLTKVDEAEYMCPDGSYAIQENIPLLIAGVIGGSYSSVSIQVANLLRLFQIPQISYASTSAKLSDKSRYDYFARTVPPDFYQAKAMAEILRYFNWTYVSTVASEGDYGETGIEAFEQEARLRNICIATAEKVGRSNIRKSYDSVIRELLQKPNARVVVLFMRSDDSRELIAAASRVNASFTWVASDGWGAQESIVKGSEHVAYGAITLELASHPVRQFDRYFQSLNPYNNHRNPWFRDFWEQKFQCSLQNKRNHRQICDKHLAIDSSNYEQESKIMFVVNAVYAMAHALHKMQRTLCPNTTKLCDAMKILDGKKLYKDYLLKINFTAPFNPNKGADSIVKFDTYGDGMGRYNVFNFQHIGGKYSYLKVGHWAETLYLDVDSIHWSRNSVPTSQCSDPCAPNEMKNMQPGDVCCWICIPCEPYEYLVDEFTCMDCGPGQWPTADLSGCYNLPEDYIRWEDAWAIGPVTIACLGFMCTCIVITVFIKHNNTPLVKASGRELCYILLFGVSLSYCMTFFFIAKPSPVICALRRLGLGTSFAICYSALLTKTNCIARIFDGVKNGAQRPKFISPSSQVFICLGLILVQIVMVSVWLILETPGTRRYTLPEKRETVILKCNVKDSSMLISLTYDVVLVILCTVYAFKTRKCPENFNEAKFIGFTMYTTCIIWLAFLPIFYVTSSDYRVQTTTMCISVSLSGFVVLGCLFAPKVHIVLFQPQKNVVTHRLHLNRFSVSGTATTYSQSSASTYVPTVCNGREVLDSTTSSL

Biological target: T1, recombinant mouse Raptin protein with a His-tag (mouse)
T1 sequence: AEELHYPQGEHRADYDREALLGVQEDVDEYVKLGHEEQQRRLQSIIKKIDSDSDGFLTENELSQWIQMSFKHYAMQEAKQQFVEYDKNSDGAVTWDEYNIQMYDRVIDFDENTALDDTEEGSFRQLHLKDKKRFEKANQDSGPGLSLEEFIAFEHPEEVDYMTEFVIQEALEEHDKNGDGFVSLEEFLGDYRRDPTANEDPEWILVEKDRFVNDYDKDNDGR
Assay: affinity purification with mass spectrometry; His-Raptin incubated with cell lysate of hypothalamic GT1-7 neurons 2 h at room temperature; captured with anti-His antibody on protein A/G magnetic beads, 4 °C overnight; SDS-PAGE gel used for MS; only the target purified

glutamate metabotropic receptor 3 (GRM3), endogenous (from UniProt Q9QYS2 23-879)
binding: binds
